Data as given in PMC3762332.
Construct, isoform or probe ends are uncertain for at least one entry. For part of these data: Where a protein sequence is shown, tags need not be part of it.

The chains behind the UniProt entries cited, without tags or fusion partners. Where a name states a change or a piece, a line headed by the entry shows the natural chain unless it says otherwise.
UniProt P43694: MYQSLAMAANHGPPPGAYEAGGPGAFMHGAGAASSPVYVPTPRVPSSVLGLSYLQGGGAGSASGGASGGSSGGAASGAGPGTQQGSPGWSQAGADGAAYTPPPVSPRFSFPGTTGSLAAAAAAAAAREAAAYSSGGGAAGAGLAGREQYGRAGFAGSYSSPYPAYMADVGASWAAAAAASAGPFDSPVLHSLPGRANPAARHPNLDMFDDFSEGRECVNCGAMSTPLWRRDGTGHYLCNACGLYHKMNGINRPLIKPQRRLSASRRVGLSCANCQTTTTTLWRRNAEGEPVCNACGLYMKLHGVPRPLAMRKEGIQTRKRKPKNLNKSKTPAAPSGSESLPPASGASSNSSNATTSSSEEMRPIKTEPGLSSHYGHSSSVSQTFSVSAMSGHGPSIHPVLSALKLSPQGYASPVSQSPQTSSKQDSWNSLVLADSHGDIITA
UniProt Q8IW36: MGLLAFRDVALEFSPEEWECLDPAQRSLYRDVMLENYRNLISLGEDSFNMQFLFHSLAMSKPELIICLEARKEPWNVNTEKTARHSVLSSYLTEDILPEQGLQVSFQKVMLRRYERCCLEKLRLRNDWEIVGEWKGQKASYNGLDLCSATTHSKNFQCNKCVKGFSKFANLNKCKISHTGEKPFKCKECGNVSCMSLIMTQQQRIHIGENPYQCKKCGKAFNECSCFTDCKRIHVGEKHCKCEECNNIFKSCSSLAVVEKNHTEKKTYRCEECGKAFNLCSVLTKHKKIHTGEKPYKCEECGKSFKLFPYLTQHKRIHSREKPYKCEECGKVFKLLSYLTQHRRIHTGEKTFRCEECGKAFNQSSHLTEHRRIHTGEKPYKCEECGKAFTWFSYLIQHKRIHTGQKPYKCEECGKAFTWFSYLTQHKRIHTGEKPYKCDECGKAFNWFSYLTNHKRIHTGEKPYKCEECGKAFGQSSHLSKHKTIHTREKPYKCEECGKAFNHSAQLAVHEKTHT
UniProt P19793: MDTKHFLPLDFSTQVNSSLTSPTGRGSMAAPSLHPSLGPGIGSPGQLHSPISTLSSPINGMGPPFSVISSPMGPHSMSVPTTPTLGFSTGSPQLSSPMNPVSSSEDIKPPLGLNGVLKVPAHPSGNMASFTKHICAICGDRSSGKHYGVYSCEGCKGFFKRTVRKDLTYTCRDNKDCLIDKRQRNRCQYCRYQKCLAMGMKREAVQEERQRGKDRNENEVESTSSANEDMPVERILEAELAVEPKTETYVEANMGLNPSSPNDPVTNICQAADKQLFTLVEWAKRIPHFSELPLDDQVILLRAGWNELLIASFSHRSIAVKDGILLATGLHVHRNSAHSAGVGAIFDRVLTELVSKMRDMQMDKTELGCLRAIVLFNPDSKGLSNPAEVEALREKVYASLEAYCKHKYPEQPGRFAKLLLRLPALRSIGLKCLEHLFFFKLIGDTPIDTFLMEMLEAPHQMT
UniProt P37231: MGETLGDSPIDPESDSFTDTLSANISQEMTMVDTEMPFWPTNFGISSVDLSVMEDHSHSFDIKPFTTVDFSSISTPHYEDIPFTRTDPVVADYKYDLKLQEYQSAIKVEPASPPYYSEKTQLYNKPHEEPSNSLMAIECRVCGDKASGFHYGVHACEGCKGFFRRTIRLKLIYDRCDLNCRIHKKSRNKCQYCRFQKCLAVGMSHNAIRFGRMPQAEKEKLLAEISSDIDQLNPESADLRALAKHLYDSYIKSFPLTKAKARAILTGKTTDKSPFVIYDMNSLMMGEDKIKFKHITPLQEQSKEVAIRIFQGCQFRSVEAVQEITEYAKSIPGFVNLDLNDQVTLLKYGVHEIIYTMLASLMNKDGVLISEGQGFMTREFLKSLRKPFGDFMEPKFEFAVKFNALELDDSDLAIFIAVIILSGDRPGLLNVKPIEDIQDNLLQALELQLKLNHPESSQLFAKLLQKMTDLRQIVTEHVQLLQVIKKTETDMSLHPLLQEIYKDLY
UniProt Q9BWM5: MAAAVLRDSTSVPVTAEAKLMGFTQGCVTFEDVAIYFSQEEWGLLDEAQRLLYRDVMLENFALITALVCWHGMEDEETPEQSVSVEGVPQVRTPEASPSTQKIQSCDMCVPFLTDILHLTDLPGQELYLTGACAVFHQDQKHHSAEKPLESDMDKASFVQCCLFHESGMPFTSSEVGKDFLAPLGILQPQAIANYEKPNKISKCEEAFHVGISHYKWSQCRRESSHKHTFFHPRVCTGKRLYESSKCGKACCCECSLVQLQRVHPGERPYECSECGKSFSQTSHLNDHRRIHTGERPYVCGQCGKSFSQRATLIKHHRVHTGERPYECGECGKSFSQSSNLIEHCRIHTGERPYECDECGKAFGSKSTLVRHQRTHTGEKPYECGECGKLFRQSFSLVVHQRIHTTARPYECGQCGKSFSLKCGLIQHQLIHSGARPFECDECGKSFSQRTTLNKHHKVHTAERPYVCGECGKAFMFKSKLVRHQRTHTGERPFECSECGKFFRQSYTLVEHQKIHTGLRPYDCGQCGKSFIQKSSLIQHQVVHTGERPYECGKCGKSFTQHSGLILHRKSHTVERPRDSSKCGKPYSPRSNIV
UniProt P20719: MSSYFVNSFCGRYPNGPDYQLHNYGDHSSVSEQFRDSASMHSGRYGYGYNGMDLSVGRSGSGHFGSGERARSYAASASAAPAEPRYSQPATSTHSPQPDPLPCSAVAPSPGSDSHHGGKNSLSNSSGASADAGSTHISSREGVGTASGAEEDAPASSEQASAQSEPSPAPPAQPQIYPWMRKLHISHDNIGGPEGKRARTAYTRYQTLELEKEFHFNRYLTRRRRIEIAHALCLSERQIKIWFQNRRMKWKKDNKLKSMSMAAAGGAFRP
UniProt O00716: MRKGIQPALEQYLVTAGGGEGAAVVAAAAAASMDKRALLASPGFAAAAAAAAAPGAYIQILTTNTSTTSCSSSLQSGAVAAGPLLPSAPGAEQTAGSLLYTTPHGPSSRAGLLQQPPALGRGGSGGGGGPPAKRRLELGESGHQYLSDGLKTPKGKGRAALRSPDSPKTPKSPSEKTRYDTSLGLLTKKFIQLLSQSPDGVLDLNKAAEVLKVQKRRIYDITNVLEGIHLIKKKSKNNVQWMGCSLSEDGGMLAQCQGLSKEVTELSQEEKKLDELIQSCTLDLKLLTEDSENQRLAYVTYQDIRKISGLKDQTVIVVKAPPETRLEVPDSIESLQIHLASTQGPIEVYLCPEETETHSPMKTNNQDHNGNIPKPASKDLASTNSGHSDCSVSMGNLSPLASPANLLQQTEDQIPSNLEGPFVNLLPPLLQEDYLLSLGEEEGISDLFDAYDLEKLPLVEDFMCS
UniProt Q8NC26: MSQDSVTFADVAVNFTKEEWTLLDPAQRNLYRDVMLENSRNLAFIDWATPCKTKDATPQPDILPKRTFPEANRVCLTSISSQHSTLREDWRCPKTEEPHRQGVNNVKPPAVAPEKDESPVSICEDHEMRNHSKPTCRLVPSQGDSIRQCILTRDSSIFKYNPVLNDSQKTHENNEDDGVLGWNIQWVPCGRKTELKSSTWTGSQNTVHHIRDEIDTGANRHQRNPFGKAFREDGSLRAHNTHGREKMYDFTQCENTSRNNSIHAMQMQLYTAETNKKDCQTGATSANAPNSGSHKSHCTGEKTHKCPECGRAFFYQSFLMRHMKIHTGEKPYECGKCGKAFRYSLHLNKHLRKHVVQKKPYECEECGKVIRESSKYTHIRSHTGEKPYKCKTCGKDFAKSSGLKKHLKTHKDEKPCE
UniProt P05549: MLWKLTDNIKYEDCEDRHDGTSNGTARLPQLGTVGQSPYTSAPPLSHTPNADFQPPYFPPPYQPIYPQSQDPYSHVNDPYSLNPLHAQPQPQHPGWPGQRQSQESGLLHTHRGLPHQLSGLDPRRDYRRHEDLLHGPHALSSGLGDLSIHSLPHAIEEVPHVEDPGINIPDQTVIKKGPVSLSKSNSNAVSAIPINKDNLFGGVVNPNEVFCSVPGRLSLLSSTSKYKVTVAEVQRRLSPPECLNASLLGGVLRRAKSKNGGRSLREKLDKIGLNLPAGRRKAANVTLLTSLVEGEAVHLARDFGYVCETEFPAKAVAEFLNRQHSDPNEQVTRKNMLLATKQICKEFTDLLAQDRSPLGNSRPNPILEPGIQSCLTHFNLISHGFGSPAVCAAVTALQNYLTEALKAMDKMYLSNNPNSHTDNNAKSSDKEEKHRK

Experiments:
Test in all cases: protein microarray
Settings in all cases: 10-fold cold unmethylated competitor; 5mC at CpG (SssI, both strands); recombinant protein; protein details: GST (N-terminal); label: Cy5
GATA4 (Homo sapiens) = GATA4 (Homo sapiens) (UniProt P43694)
SCAPER (Homo sapiens) = target: T1, SCAPER (Homo sapiens) (UniProt Q9BY12)
T1 sequence (looked up, limits assumed): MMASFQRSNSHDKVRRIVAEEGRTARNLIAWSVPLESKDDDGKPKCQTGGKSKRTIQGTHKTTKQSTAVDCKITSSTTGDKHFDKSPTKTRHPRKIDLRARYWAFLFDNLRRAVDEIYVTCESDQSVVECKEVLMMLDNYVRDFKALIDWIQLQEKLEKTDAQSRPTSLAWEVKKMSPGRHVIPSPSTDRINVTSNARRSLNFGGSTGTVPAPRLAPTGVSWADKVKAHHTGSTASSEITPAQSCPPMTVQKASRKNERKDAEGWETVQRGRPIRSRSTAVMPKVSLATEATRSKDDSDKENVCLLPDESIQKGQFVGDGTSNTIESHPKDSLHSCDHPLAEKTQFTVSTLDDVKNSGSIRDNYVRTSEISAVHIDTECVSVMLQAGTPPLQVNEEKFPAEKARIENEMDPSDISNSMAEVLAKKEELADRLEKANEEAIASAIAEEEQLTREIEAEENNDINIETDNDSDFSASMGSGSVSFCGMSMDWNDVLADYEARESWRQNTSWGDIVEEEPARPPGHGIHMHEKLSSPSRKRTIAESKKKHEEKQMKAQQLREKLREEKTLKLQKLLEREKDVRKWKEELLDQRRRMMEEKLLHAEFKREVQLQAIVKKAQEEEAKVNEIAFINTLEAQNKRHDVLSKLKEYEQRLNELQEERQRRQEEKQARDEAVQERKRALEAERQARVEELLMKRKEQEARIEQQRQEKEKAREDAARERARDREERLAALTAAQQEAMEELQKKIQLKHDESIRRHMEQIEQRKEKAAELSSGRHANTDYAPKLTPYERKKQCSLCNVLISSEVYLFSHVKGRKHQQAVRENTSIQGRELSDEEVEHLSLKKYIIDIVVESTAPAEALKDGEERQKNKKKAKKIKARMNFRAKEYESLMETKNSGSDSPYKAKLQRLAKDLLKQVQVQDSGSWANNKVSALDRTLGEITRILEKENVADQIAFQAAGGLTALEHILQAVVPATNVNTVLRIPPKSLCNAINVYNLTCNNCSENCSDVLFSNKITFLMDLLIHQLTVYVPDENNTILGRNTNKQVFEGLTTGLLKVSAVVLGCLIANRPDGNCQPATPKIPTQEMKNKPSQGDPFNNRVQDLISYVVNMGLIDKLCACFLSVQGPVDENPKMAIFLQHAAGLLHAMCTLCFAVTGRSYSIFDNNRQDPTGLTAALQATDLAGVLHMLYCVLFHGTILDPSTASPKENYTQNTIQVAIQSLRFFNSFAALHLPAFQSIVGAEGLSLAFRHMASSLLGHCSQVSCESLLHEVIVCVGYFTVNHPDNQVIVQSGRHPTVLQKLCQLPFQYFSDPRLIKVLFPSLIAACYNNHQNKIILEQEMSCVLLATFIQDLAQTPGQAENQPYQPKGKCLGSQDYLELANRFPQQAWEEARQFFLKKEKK

ZNF695 (Homo sapiens) = ZNF695 (Homo sapiens) (UniProt Q8IW36)
RXRA (Homo sapiens) = RXRA (Homo sapiens) (UniProt P19793)
RNF138 (Homo sapiens) = target: T2, RNF138 (Homo sapiens) (UniProt Q8WVD3)
T2 sequence (looked up, limits assumed): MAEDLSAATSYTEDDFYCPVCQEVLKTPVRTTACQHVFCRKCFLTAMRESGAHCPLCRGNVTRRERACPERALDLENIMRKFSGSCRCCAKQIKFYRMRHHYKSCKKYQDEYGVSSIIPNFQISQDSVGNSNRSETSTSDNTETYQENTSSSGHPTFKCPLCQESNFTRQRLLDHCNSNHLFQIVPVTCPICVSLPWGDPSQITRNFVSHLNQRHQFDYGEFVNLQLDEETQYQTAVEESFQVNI

PPARG (Homo sapiens) = PPARG (Homo sapiens) (UniProt P37231)
ZNF416 (Homo sapiens) = ZNF416 (Homo sapiens) (UniProt Q9BWM5)
HOXA5 (Homo sapiens) = HOXA5 (Homo sapiens) (UniProt P20719)
ZCCHC7 (Homo sapiens) = target: T3, ZCCHC7 (Homo sapiens) (UniProt Q8N3Z6)
T3 sequence (looked up, limits assumed): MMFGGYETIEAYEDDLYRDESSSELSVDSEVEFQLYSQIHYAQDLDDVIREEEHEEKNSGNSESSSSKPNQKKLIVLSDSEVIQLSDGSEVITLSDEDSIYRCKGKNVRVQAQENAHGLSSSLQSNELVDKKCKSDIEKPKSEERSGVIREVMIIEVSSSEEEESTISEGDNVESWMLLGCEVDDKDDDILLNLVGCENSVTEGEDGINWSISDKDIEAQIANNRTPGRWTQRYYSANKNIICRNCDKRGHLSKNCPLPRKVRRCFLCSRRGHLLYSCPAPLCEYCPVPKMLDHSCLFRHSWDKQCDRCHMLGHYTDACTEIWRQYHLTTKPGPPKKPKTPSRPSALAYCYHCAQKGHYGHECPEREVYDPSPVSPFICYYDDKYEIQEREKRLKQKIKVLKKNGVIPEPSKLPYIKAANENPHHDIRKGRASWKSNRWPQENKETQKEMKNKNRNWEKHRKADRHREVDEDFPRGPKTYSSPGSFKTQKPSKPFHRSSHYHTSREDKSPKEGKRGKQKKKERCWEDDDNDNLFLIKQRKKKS

E2F3 (Homo sapiens) = E2F3 (Homo sapiens) (UniProt O00716)
ZNF114 (Homo sapiens) = ZNF114 (Homo sapiens) (UniProt Q8NC26)
TFAP2A (Homo sapiens) = TFAP2A (Homo sapiens) (UniProt P05549)
SMAD4 (Homo sapiens) = target: T4, SMAD4 (Homo sapiens) (UniProt Q13485)
T4 sequence (looked up, limits assumed): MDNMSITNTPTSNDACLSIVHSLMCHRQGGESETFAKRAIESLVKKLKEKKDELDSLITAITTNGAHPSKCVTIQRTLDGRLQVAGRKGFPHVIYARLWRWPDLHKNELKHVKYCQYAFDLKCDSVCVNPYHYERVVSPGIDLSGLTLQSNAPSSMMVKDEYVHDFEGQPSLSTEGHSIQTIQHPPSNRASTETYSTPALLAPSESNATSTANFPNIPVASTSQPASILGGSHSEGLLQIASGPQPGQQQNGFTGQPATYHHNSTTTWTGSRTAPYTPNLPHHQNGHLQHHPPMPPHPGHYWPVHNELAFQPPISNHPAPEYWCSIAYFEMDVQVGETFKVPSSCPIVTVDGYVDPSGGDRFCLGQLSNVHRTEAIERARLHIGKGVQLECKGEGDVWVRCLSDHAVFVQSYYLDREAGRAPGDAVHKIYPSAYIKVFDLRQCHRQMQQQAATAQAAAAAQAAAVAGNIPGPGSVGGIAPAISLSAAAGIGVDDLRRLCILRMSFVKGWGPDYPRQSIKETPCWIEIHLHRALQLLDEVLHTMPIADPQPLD

NRF1 (Homo sapiens) = target: T5, NRF1 (Homo sapiens) (UniProt Q16656)
T5 sequence (looked up, limits assumed): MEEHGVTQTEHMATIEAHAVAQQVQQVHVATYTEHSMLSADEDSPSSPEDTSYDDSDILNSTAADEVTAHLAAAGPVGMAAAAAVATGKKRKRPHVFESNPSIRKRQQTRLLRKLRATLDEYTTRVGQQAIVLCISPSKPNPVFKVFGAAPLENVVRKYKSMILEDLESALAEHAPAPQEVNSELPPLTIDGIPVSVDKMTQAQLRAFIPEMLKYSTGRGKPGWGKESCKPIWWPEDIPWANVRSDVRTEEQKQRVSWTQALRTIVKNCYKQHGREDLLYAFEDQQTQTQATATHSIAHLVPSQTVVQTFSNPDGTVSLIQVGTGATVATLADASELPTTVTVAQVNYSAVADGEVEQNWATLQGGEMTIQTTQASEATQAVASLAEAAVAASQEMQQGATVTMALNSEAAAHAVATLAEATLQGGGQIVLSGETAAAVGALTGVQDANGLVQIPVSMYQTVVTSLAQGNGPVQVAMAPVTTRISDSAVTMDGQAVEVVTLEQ

BCL3 (Homo sapiens) = target: T6, BCL3 (Homo sapiens) (UniProt P20749)
T6 sequence (looked up, limits assumed): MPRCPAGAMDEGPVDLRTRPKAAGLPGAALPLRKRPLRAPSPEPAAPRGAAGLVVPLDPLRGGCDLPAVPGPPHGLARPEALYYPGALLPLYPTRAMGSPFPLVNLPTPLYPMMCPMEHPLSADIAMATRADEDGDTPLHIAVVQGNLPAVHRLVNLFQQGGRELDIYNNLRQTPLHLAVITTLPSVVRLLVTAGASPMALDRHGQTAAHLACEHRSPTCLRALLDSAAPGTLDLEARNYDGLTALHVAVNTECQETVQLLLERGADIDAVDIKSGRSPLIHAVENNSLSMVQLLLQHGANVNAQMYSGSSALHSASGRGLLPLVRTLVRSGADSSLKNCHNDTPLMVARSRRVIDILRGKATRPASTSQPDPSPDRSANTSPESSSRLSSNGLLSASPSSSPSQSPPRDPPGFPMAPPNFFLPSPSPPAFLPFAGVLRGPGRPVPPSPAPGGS

Measured: binding result

CGGGAGCTTTCGGGAGCCCCTATAGTGAGTGCTATTA (double strand) [M306]
not listed: SMAD4 (Homo sapiens) | NRF1 (Homo sapiens) | BCL3 (Homo sapiens)
binds: all other assays above

ACGATTAGCCCACGATTAGCCCTATAGTGAGTGCTATTA (double strand) [M414]
not listed: ZNF695 (Homo sapiens) | ZCCHC7 (Homo sapiens) | E2F3 (Homo sapiens) | TFAP2A (Homo sapiens) | NRF1 (Homo sapiens) | BCL3 (Homo sapiens)
binds: all other assays above

AGGGTCGCGTGAGTATAAAAGCCGGTTTTCGGGGAAAAGGGTCGCGTGAGTATAAAAGCCGGTTTTCGGGGCCCTATAGTGAGTGCTATTA (double strand) [M41]
binds: SCAPER (Homo sapiens) | ZNF695 (Homo sapiens) | ZNF416 (Homo sapiens) | NRF1 (Homo sapiens) | HOXA5 (Homo sapiens) | E2F3 (Homo sapiens) | TFAP2A (Homo sapiens)

TTTCGCGCAAATTTCGCGCCCCTATAGTGAGTGCTATTA (double strand) [M1]
not listed: GATA4 (Homo sapiens) | RNF138 (Homo sapiens) | PPARG (Homo sapiens) | ZCCHC7 (Homo sapiens) | SMAD4 (Homo sapiens) | BCL3 (Homo sapiens)
binds: all other assays above

CGGGCTCAAACGGGCTCCCCTATAGTGAGTGCTATTA (double strand) [M310]
not listed: E2F3 (Homo sapiens) | SMAD4 (Homo sapiens)
binds: all other assays above

CCCGTGACCAAACCCGTGACCCCCTATAGTGAGTGCTATTA (double strand) [M32]
not listed: BCL3 (Homo sapiens)
binds: all other assays above

GGCGCCCTTTGGCGCCCCCCTATAGTGAGTGCTATTA (double strand) [M292]
not listed: ZCCHC7 (Homo sapiens) | SMAD4 (Homo sapiens) | NRF1 (Homo sapiens) | BCL3 (Homo sapiens)
binds: all other assays above

CCCTCCCGAAACCCTCCCGCCCTATAGTGAGTGCTATTA (double strand) [M31]
not listed: ZCCHC7 (Homo sapiens) | TFAP2A (Homo sapiens) | NRF1 (Homo sapiens)
binds: all other assays above
